Measured values reported in PMC4171630.
These are yes or no findings as the source states them, for the method shown. Binding seen in cells or lysates may run through a third protein. Some binding calls cover weakened binding; strength is not graded here. Tags and fused reporters may be left off the sequences shown.

By UniProt entry, the sequences of proteins in these tests, tags left out.
UniProt P31749: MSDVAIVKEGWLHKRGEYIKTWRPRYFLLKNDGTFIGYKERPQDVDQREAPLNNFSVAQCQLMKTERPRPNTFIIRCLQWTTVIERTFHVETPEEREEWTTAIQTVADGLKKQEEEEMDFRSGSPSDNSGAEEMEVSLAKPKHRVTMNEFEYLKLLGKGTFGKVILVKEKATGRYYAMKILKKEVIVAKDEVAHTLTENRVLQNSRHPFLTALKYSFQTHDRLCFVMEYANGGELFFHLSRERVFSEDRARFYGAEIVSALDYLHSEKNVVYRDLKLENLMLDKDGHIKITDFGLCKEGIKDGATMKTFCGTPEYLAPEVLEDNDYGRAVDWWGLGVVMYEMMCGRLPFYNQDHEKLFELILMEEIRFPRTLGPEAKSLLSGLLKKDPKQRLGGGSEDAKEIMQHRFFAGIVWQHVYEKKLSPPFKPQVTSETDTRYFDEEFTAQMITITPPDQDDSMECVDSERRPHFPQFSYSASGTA

Target: T1, FLAG-cPLA2α (cytosolic phospholipase A2α) (human) (UniProt P47712)
T1 sequence: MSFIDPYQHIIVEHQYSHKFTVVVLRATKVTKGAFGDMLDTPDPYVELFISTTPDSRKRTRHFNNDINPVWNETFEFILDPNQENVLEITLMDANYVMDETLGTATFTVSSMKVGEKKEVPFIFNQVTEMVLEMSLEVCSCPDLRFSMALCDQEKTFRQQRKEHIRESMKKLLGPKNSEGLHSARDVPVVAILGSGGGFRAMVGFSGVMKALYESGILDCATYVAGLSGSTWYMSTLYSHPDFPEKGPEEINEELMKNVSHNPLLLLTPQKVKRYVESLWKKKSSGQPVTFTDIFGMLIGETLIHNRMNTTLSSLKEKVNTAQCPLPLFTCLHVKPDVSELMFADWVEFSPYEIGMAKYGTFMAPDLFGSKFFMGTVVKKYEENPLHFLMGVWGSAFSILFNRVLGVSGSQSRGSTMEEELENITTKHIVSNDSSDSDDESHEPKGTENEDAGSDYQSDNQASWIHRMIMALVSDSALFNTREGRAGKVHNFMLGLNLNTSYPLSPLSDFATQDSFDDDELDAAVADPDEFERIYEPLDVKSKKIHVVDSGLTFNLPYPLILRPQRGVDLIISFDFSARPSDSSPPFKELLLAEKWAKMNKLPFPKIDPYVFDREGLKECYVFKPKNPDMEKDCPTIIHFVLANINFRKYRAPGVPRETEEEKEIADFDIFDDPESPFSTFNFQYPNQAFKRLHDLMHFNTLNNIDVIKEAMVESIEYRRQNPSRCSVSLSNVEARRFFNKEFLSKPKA
Assay: co-IP; HEK 293 cells co-transfected with FLAG-cPLA2α and Myr-AKT for 36 h, stimulated with EGF (25 ng/ml, 15 min); 0.5 mg total protein incubated overnight with 2 μg anti-FLAG, anti-AKT or control IgG antibody; eluted proteins immunoblotted with anti-cPLA2α, anti-AKT and anti-pAKT

Row | Substance | binding
1 | pAKT (Myr-AKT phosphorylated at Ser473) (from UniProt P31749 1-480) (enzyme) | binds
2 | Myr-AKT (AKT with a myristoylation signal) (from UniProt P31749 1-480) (enzyme) | binds
